Laboratory results published in article PMC5979965, “Structure-based discovery of mPGES-1 inhibitors suitable for preclinical testing in wild-type mice as a new generation of anti-inflammatory drugs” (Scientific Reports, 2018).

system: COX-1/2; assay: Activity assay of COX-1/2 (mixture of equal amounts of COX-1 and COX-2, Cayman COX inhibitor screening kit); details: compound at 100 µM, equal amounts of COX-1 and COX-2 in terms of enzyme activities

Compound	COX-1/2 Inhibition (%) at 100 µM
O=C1NC(=O)C(=Cc2ccc(OCCCCC3CCCCC3)c([N+](=O)[O-])c2)C(=O)N1	less than 50% and 43 ± 3.2%
O=C1NC(=O)C(=Cc2ccc(OCCCCC3CCCCC3)c(Br)c2)C(=O)N1	greater than 50% and 63 ± 0.8%
Cc1cc(C=C2C(=O)NC(=O)NC2=O)ccc1OCCCCC1CCCCC1	did not significantly inhibit and 9.1 ± 6.6%
O=C1NC(=O)C(=Cc2ccc(OCCCCC3CCCCC3)c(O)c2)C(=O)N1	greater than 50% and 68 ± 3.4%
COc1cc(C=C2C(=O)NC(=O)NC2=O)ccc1OCCCCC1CCCCC1	less than 50% and 28 ± 3.6%

Not every entry of the source has a single result; some have several. Only these are listed. An entry can have further records. The values listed for one entry do not match, cause unknown; some may be repeats, others may stem from another dose, organism or construct than stated.
